In publication PMC7404307:
The exact form of at least one protein or probe is not confirmed. For part of these data: No signal at the amounts used counts as a negative. For part of these data: At least one verdict was read from the data and is not stated in words by the source.

Key:
[1] = system: skeletal troponin I (sTnI); test: AlphaLisa sandwich; conditions: 5 nM sTnI, diluted human plasma, L-DNA (all L-2'-deoxyribose), AlphaLisa: selection buffer (PBS, 1 mg/mL BSA, 0.01 ug/mL poly(dI-dC), 5 mM EDTA) or diluted human plasma, label: 5' biotin, synthetic backbone
[2] = target: cardiac troponin I (cTnI) (UniProt P19429); test: AlphaLisa sandwich; conditions: 5 nM cTnI, diluted human plasma, L-DNA (all L-2'-deoxyribose), AlphaLisa: selection buffer (PBS, 1 mg/mL BSA, 0.01 ug/mL poly(dI-dC), 5 mM EDTA) or diluted human plasma, label: 5' biotin, synthetic backbone

## CAGTGAGTGATGGTGAGGGTGAATCGGTGTCGACTATTAAATTAAGTTGTGGTTGTTCCCACACTGTCCATACACG [C6 spiegelmer]
[1]; with B10
  binding result: no binding
[2]; with B10, signal about 5x
  binding result: binds

## CAGTGAGTGATGGTGAGGGCTTAGTTCGCCGCTCATGCCGAATCTCCTGTATAAATACCCACACTGTCCATACACG [A6 spiegelmer]
[1]; with B10
  binding result: no binding
[2]; with B10, signal about 5x
  binding result: binds

## AGTCTCCGCTGTCCTCCCGATGCACTTGACGTATGTCTCACTTTCTTTTCATTGACATGGGATGACGCCGTGACTG [B10 spiegelmer]
[1]; with A6 or C6
  binding result: no binding
[2]; with A6 or C6
  binding result: binds
